# Experimental data published in PubChem BioAssay AID504467 (National Center for Advancing Translational Sciences (NCATS), 2011).
# Screen size: about 330,000 compounds; about 7,700 (2.3%) were called active. The shares of active, inactive and inconclusive entries below differ from those in the screen. Calls come from the whole dose curve; as a rule, active = well fitted inhibition curve with a large enough effect; inconclusive = small, poorly fitted or top-dose-only effect, or effect the other way; inactive = flat fitted curve, though single readings scatter. Where the call is inconclusive, the potency comes from a doubtful curve fit.
# Assay: qHTS screen for small molecules that inhibit ELG1-dependent DNA repair in human embryonic kidney (HEK293T) cells expressing luciferase-tagged ELG1; note: nearly all actives have a fitted effect of over 55% in size
# Conditions: HEK293T ELG1-luciferase reporter, luminescence, 16 h, DNA damage induced by 5-fluorouridine; activity change, negative = inhibition: at 46.1 µM (top of the series)
# Method in brief: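 Cells (2,000 per well) received 5-fluorouridine plus test compound or DMSO and were incubated 16 hr at 37 °C, 5% CO2. Luciferase activity was read by luminescence 30 min after ONE-Glo addition; signal suppression marked inhibition of damage-induced ELG1 function.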
# % is set by controls: 0 for no effect and ±100 for the full control effect; potency is the fitted concentration of half-maximal effect.
Structure (SMILES),Potency,"activity change, negative = inhibition"
Cc1cccc(COc2ccccc2C(=O)OCC(=O)N(C)c2c(N)n(Cc3ccccc3)c(=O)[nH]c2=O)c1,active: 20.6 µM,–
Cc1cc(C)c(C)c(S(=O)(=O)NCc2ccc(C(=O)N3CCOCC3)cc2)c1C,–,inactive: 6.32%
CN(C)c1oc(-c2ccccc2Cl)nc1P(=O)(c1ccccc1)c1ccccc1,"inconclusive: 23.1 µM [inhibitor, single point]",–
Cc1cc(C)nc(/N=C(/NC(=O)Nc2ccc(Cl)c(Cl)c2)Nc2ccccc2)n1,–,inactive: 13.7%
C=CCSc1nnc(NC(=O)c2cccc(S(=O)(=O)N(C)c3ccccc3)c2)s1,–,inactive: -7.44%
COc1ccc(NC(=O)c2cnc(SC)nc2)cc1,–,inactive: -15.1%
C=CCNc1nc2ccccc2c(=O)[nH]1,–,inactive: -4.9%
COCCN(C(=O)CSc1nnc(-c2cccc(OC)c2)n1C)c1c(N)n(Cc2ccccc2)c(=O)[nH]c1=O,–,inactive: -9.49%
N#C/C(=C\c1ccc([N+](=O)[O-])o1)c1nc2ccccc2[nH]1,"inconclusive: 29.1 µM [inhibitor, single point]",–
Cc1cc(C)n2nc(C(=O)N/N=C/c3c4ccccc4cc4ccccc34)nc2n1,"inconclusive: 23.1 µM [inhibitor, partial curve]",–
COc1cc(C2Nc3cc(C)c(C)cc3NC3=C2C(=O)CC(C)(C)C3)ccc1OC(C)=O (centres undefined),–,inactive: 22.6%
CCN(CC(=O)NCc1ccc(Cl)cc1)S(=O)(=O)c1ccc(NC(C)=O)cc1,"inconclusive: 23.1 µM [inhibitor, partial curve, poor fit]",–
O=C1CCCc2nc(N3CCc4ccccc43)ncc21,"inconclusive: 4.11 µM [activator, partial curve]",–
COc1ccccc1-n1c(=O)c(C#N)c(-c2ccc([N+](=O)[O-])cc2)c2cc(C(=O)c3ccccc3O)cnc21,–,inactive: -18.8%
Cc1cc(C)c(C)c(/C=C(/C#N)C(N)=S)c1C,–,inactive: 10.5%
N/C(=N\c1nc2c(c(=O)[nH]1)CCCC2)Nc1ccc(Oc2ccccc2)cc1,"inconclusive: 20.6 µM [inhibitor, partial curve]",–
COc1ccc(-c2nn(-c3ccccc3)cc2/C=C/C(=O)OCC(=O)Nc2ccccc2C#N)cc1,–,inactive: 5.82%
O=C(Nc1ccc2c(c1)OCO2)c1cnn2c1NC(c1ccco1)CC2C(F)(F)F (centres undefined),"inconclusive: 32.6 µM [activator, partial curve, poor fit]",–
COCCOc1cc(NC(=O)c2cccc(OC)c2)c(Cl)cc1Cl,–,inactive: 0%
CCc1nn2cc(C(=O)c3ccccc3O)cnc2c1-c1ccc(F)cc1,"inconclusive: 32.6 µM [inhibitor, partial curve, poor fit]",–
CC(C(=O)Nc1ccc2c(c1)OCCO2)N(C)CC(=O)Nc1ccccc1Br (centres undefined),–,inactive: -14%
O=C(CNC(=O)c1ccccc1F)OCn1nnc2ccccc2c1=O,"inconclusive: 15.8 µM [activator, partial curve, poor fit]",–
O=C(CN1CCN(C/C=C/c2ccccc2)CC1)NC(=O)NC1CCCCC1,"inconclusive: 20.6 µM [inhibitor, single point]",–

Structure (SMILES),Potency,"activity change, negative = inhibition"
O=C1CC(NS(=O)(=O)c2cccs2)CN1c1ccccc1 (centres undefined),–,inactive: 1.16%
COC(=O)C1(Cc2cc(-c3cccc(Br)c3)no2)CCN(C(=O)OC(C)(C)C)CC1,–,inactive: -16.1%
CCN(Cc1ccccc1)c1ccc(/C=N/N=C(N)N)cc1,"inconclusive: 2.06 µM [inhibitor, partial curve, poor fit]",–
COC(=O)c1nn(-c2ccccc2)c(Sc2ccc(Br)cc2)c1/C=N/O,"inconclusive: 29.1 µM [inhibitor, single point]",–
CCC1CCCCN1Cc1nc2c(c(=O)n(C)c(=O)n2C)n1Cc1ccccc1 (centres undefined),"inconclusive: 32.6 µM [inhibitor, single point]",–
CN1C(=O)N(CC(=O)Nc2nccs2)C(=O)C12CCCCC2,"inconclusive: 0.259 µM [inhibitor, single point]",–
CCOC(=O)CC[C@H](NC(=O)Cn1cnc2c(NCc3ccccc3)ncnc21)C(=O)OCC,–,inactive: 27.7%
COCCCN1CC23C=CC(O2)C(C(=O)O)C3C1=O (centres undefined),"inconclusive: 20.6 µM [activator, partial curve, poor fit]",–
CCn1c(CN2CCN(c3ccc(OC)cc3)CC2)nc2cc(S(=O)(=O)N(C)C)ccc21,"inconclusive: 7.3 µM [inhibitor, partial curve, poor fit]",–
Cc1cccc2sc(N(CCN(C)C)C(=O)/C=C/c3cccs3)nc12,–,inactive: -18.4%
CC1(C)Cc2c(cnn2-c2ccc(F)cc2)C(NC(=O)CCN2CCCC2=O)C1 (centres undefined),"inconclusive: 16.4 µM [activator, partial curve]",–
S=c1[nH]nc(Cc2ccc(Br)cc2)n1/N=C/c1ccc(Cl)cc1,–,inactive: -3.69%
CC(C)Cn1c(-c2ccco2)csc1=Nc1cccnc1,–,inactive: 19.1%
COc1cccc(CNC(=O)Cn2ncn3cccc3c2=O)c1OC,"inconclusive: 29.1 µM [activator, single point]",–
C[C@H](CO)N1C[C@H](C)[C@@H](CN(C)C(=O)NC2CCCCC2)Oc2ccc(NS(=O)(=O)c3cn(C)cn3)cc2C1=O,"inconclusive: 0.231 µM [activator, single point]",–
COc1ccc(NC(=O)CCS(=O)(=O)c2ccccc2Cl)cc1S(=O)(=O)Nc1ccc(Cl)cc1,"inconclusive: 29.1 µM [inhibitor, single point]",–
O=C(c1cc(-c2cccs2)on1)N1CCN(C(c2ccccc2)c2ccccc2)CC1,–,inactive: -4.22%
O=C(C[C@H]1C/C=C\C[C@H](NC(=O)OCC2c3ccccc3-c3ccccc32)C(=O)OC[C@H]2CCCN2C1=O)NCCO,–,inactive: 20%
Cc1cccc([C@@H]2[C@@H]3C(=O)N(Cc4ccccc4)C(=O)[C@@H]3[C@]3(Cc4ccccc4)C(=O)N(c4ccc(C(F)(F)F)cc4)C(=O)N23)c1,–,inactive: 29.6%
COc1ccc(-c2nnc(SCC(=O)NC3CC3)o2)cc1,"inconclusive: 20.6 µM [activator, partial curve]",–
Cc1ccc2c(c1)nnn2C1CCN(S(=O)(=O)c2ccc(C(=O)N3C(C)CCCC3C)cc2)CC1 (centres undefined),"inconclusive: 12.6 µM [inhibitor, partial curve, poor fit]",–
CCOc1ccc2nc(NC(=O)Cn3[nH]c(=O)c4ccccc4c3=O)sc2c1,"inconclusive: 18.3 µM [activator, partial curve]",–
CC(C)(C)OC(=O)N[C@H](C(=O)OC(C)(C)C)c1ccc2c(c1)OCO2,–,inactive: 7.58%

# Single entries from the results shown.
# activity change, negative = inhibition with COC(=O)C1(Cc2cc(-c3cccc(Br)c3)no2)CCN(C(=O)OC(C)(C)C)CC1 reads inactive: -16.1%
# Potency with CN1C(=O)N(CC(=O)Nc2nccs2)C(=O)C12CCCCC2 reads inconclusive: 0.259 µM [inhibitor, single point]
# Potency with COc1ccc(-c2nnc(SCC(=O)NC3CC3)o2)cc1 reads inconclusive: 20.6 µM [activator, partial curve]
# activity change, negative = inhibition with CC(C)Cn1c(-c2ccco2)csc1=Nc1cccnc1 reads inactive: 19.1%

# (listing goes on)

Structure (SMILES),Potency,"activity change, negative = inhibition"
CCC(CC)C(=O)Nc1nnc(S(=O)(=O)N2CCCc3ccccc32)s1,–,inactive: -4.23%
CSCCC(NC(=O)c1ccccc1Cl)C(=O)N1CCCCC1 (centres undefined),–,inactive: 12.4%
CCC(=O)Nc1ccc2nc(C)n(Cc3ccccc3Cl)c(=O)c2c1,"inconclusive: 20.6 µM [inhibitor, single point]",–
C[C@H](NC(=O)OC(C)(C)C)c1nnc(SCC(=O)Nc2cccc(Cl)c2)o1,"inconclusive: 20.6 µM [activator, partial curve, poor fit]",–
CCOC(=O)C1(S(=O)(=O)c2ccc(Cl)cc2)CCN(Cc2ccc(C)cc2)CC1,–,inactive: -17.5%
Cc1cccc(C(=O)NCCNC(=O)c2ccccn2)c1,"inconclusive: 20.6 µM [inhibitor, partial curve, poor fit]",–
CC(C)NC(=O)c1cc2c(s1)CCCC2,"inconclusive: 20.6 µM [activator, single point]",–
O=C1C=C(c2cc3ccccc3s2)C[C@@H](c2ccc(Cl)cc2)C1,"inconclusive: 32.6 µM [activator, partial curve, poor fit]",–
CN(CCC#N)C(=S)Nc1ccc(Oc2ccccc2)cc1,–,inactive: -3.4%
N#Cc1c(NC(=O)c2ccc([N+](=O)[O-])o2)sc2c1CCC2,"inconclusive: 2.91 µM [activator, partial curve]",–
CC1C[N+](=C2C=C(N3CCOCC3)CC(C)(C)C2)CC(C)O1 (centres undefined),–,inactive: 5.62%
Cc1cccc(NC(=O)NCC2CC2)c1,"inconclusive: 25.9 µM [activator, single point]",–
O=C(Nc1ccccc1)c1ccc(CN2CCc3ccccc3C2)cc1,"inconclusive: 6.51 µM [inhibitor, single point]",–
COC(=O)c1ccccc1NC(=O)c1cc2ccccc2o1,"inconclusive: 8.2 µM [activator, partial curve, poor fit]",–
N#CC1=C(N)C(C#N)(C#N)[C@H](c2ccncc2)[C@H]2CC3(CC=C12)OCCO3,–,inactive: 4.99%
CCN(CC)S(=O)(=O)c1ccc(NC(=O)COC(=O)CCc2cc(OC)c(OC)c(OC)c2)cc1,"inconclusive: 7.31 µM [inhibitor, partial curve]",–
CCCOc1ccc(C2C3=C(CCCC3=O)N(CC(=O)O)C3=C2C(=O)CCC3)cc1OCC,"inconclusive: 2.24 µM [activator, partial curve, poor fit]",–
CCc1nnc(NC(=O)c2sc3nc4c(cc3c2N)CCCCC4)s1,"inconclusive: 3.66 µM [activator, full curve]",–
Cc1cccc(Cn2c(Cc3ccccc3)nc3ccccc32)c1,–,inactive: 11%
COc1ccc(Br)cc1CN1CCN(Cc2c[nH]c3ccccc23)CC1,–,inactive: -17.6%
O=C(c1ccc2c(c1)OCO2)C1CCCN(Cc2ccccc2OC(F)F)C1 (centres undefined),"inconclusive: 18.3 µM [inhibitor, partial curve, poor fit]",–
O=C(COC(=O)c1ccccc1SCC(=O)N1CCCC1)Nc1ccccc1OC(F)F,"inconclusive: 20.6 µM [inhibitor, single point]",–
O=C(NCCCO)C(=O)Nc1cc2c3c(c1)CCC(=O)N3CCC2,"inconclusive: 14.6 µM [activator, partial curve]",–
